Results are given in words; binding and its absence hold for the method and conditions named. Binding seen in cells or lysates may run through a third protein. Some binding calls cover weakened binding; strength is not graded here. Sequences can lack the tags named with a protein.
Target: T1, Myo1f-GFP (full-length Myosin1f as a GFP fusion) (human) (UniProt O00160)
T1 sequence: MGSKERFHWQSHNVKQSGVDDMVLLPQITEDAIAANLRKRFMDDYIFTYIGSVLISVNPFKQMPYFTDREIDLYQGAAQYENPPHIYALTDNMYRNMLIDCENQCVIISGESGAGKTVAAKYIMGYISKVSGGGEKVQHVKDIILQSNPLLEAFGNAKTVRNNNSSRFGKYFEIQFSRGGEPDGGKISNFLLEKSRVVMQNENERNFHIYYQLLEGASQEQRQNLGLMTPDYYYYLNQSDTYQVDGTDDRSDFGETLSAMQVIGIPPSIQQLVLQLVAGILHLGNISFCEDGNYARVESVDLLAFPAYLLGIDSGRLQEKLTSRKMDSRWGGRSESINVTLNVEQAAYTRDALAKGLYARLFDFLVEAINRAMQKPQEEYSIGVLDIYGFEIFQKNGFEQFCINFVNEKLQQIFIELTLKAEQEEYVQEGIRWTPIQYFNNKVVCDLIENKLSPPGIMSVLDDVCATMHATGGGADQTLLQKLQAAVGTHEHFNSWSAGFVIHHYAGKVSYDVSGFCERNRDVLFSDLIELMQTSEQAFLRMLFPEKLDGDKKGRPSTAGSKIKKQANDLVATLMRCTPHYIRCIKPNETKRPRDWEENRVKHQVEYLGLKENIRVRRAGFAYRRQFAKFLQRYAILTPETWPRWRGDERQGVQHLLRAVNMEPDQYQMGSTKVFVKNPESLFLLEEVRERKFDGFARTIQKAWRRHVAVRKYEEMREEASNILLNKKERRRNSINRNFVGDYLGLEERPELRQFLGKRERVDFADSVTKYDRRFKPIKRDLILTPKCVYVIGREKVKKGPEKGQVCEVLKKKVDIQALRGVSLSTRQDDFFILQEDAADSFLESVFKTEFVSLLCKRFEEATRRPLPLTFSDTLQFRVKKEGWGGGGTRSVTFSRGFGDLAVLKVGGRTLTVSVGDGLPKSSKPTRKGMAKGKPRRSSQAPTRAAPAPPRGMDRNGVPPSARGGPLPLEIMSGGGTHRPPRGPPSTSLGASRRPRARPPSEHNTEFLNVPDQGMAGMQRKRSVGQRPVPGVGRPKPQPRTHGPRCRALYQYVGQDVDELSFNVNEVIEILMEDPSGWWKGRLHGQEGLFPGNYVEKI
Experiment: co-IP; co-immunoprecipitation of Myo1f and Cdc42-Q61L (Figure S3B, legend not shown); the methods describe anti-GFP Micro-Beads on lysates of transfected 293T cells

The chains behind the UniProt entries cited, without tags or fusion partners. Where a name states a change or a piece, a line headed by the entry shows the natural chain unless it says otherwise.
UniProt P60953: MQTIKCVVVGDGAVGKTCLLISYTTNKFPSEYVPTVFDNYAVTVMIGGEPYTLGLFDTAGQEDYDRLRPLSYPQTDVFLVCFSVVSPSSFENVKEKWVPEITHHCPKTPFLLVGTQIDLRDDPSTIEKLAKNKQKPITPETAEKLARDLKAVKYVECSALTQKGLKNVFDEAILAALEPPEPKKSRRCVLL

binding: binds
Substance: mCherry-Cdc42-Q61L (constitutively active mutant of Cdc42) (from UniProt P60953 1-191)
